# Assay results

From PubChem BioAssay record AID1159506 (NCATS, 2015).

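Genome-wide siRNA knockdown in TC32 Ewing sarcoma cells, comparing luciferase light from an NR0B1-promoter reporter with a CMV-promoter reporter 48 hours after transfection.
Each siRNA was applied at 20 nM.
A z-score of the log NR0B1-over-CMV signal, less the median of siRNAs with the same seed; more negative means a stronger specific loss of the NR0B1 reporter.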

The strongest results of the screen are mostly left out here.
Sequences are the guide (antisense) strand, without overhang.

Sequence,gene,seed-corrected z-score
UAGUCGUACAGUGACUGUC,DNAAF1,0.6416
AUCGUUUCCCGACUCGCUC,CENPL,-0.2183
AUGCUGACAAACACUGUUC,ASAH2,0.01084
AUCUUCUUGACAAAGCUCC,FKBPL,-0.6877
UUCAGGAUGGUUGUCUUUC,ARL2,0.1631
UGCGUGAUGAUGAAAUCGG,MTHFR,-0.2481
UGUACACCGAGAGAUAUGG,CDC42BPA,0.9144
AAAUCCAUAAGGUUAAGUU,LAMB3,0.3707
UUGGUAGUAACAAUACAUC,SCNN1G,0.104
UCUCACACCGUCUCAGUCC,PSMB11,0.3615
UUACGUUAACAAACAGUUC,RIPK3,-0.1645
ACUGUGAUCUGAGUCCACC,PEF1,3
AUCGAUAGCAUCAAGAAUC,ARSF,-1.233
AACUUUGAUAGGGCUUCUG,CSAG2,0.3975
UAGGCCCUCAUGAUUGAUG,ADCY4,0.1082
AAGGCUUUGAAAUUCUUCU,RPL13,-1.997
AUCUUUAUCAUCCCAGCUC,AGPAT2,-0.7139
AAAUCUACAGUUCGCUUUC,ITGB1BP2,0.9519
UAAGAUGCUCCAAAAUCCG,DYRK3,0.277
UAUAUUCCAUGGUCAUCUC,CEP63,-0.4576
AUAGUCAUAGGUAAUCUCC,SETD1B,0.07101
UAAAUGGUGCGUCCCUUCC,SAT2,-0.8844
UUCUGAACCAGCUUGCCUU,ZNF367,-0.4509
UUAAUGAUGAUAGGUUCUG,SMARCD1,0.423
UCCCGUUUGAUCUUAGCAC,FRMD5,-0.637
UUGGUAGGAAAGGAUGGUC,DRAM2,0.09885
UUGAGAUCCACGUUAGUCC,NCAPH2,1.172
AAUGGGACUGCUGUCGUUG,EGR1,-0.477
UCCCGUACUUUCAACAUCG,SLC39A4,-0.1076
UCCGUAUAUAAGGCUGCCC,C16orf82,0.03696
CACCUUCAUGCGGUCGAUG,GNG8,1.279
UAGUCCGUAAACCUUGUUC,ZFHX3,0.638
AUACUAGCAAUUGUCCUCC,UTP15,0.8499
UUCGCUUUUUCACUAGUUC,SPTY2D1,-0.452
UUCCGGAAUUGUCUUGUCC,SYCP2,-0.4312
UAAGUUUUUCAGUCCGGGC,NABP1,1.375
UCUCGAACCAACGUAACAU,RNF141,0.6685
UCAACGACCUGAAACCUCC,M1AP,0.5642
AAUAUGUUAUAUCUCGUCC,ACTR3,0.2667
UGAUUGAAGAGGGCAUAUG,ZBTB33,-0.01196
UCUUCAACAGGUUCAGCGG,SGMS2,0.04305
ACAGUGUUACAUACGAUGG,CLSTN3,0.1732
AUAGCAACUGAGGCGAUGG,CORIN,0.568
UAAGUGUAACUGAGAAUCC,SLC25A3,0.5706
AAAGUAGUCAUACCCAUAG,BPHL,0.7748
UCAGGAAACUAGGAAGGUC,GIPC1,-0.05311
UCUGUCUUGUCGUUGUUCC,MICAL1,0.00168
AGGAUGAUCAUGUCGUUGG,FAM78A,0.8204
UUUCCAAUAACCAAGAACU,RAB4A,0.4961
AAAGAACUCGUGGAACACC,DNAJB13,0.7202
UAACACUCCACUGAUAGGC,PLAA,0.3351
AUAGGUCCAUCUGAAACCG,NODAL,0.7061
UAUACAUCACCUUAUAGCC,SDK2,0.1664
UUUCUCCAGAGAAUAGUCU,RPS26P28,0.687
UACUCGUUCUCCAACUUGC,MED8,-0.408
UAAAUGAGCAUGGUAAAGG,ASS1,-0.3426
UAUUCUAUCAGAGUGUGCA,SBF2-AS1,0.16
UUAAGAGUGAUUUUCUUGG,IMPDH2,0.1684
UACGUUGUUGUUCGGAUUG,RFX3,-0.8578
UUUCGUCAAAUCCUUUCCA,SET,0.5574
UUACAGCUUUGGUCAAUAC,OIP5-AS1,0.2534
UAACUUACAGUAAAAGACA,REPIN1,0.2358
UUAAGAAUAAGCAGAUAUG,OR51E1,-0.6738
AAUCCACAUAUAUAAAUCC,C1orf106,-0.6235
UUCUUCAGAAGUAUCCGGG,HNRNPDL,0.861
UGCAUACCUAGAUUCUACC,RAD51,-0.4677
UUUACGUUCUGCUUGAAGC,SFSWAP,0.7435
UCUGAUAUCCCUCCGGUAC,CDH18,-0.2276
UUUCAUCCUUUCGAUAUUC,CRY1,0.6316
UUGGGAUAAGCGGUCAUGC,SLC6A5,-1.001
UUCUAGAUUGCUAAGAGCC,UBQLN2,0.2976

The last 5 entries again:

{"sequence": "UUUACGUUCUGCUUGAAGC", "gene": "SFSWAP", "seed-corrected z-score": "0.7435"}
{"sequence": "UCUGAUAUCCCUCCGGUAC", "gene": "CDH18", "seed-corrected z-score": "-0.2276"}
{"sequence": "UUUCAUCCUUUCGAUAUUC", "gene": "CRY1", "seed-corrected z-score": "0.6316"}
{"sequence": "UUGGGAUAAGCGGUCAUGC", "gene": "SLC6A5", "seed-corrected z-score": "-1.001"}
{"sequence": "UUCUAGAUUGCUAAGAGCC", "gene": "UBQLN2", "seed-corrected z-score": "0.2976"}